The values are deposited in ChEMBL (CHEMBL3988442, “University of Dundee, Small-Polar-MMV Screening Library” (2021)).

By UniProt entry, the sequences of proteins in these tests, tags left out.
UniProt E9BF75, entry or part of it: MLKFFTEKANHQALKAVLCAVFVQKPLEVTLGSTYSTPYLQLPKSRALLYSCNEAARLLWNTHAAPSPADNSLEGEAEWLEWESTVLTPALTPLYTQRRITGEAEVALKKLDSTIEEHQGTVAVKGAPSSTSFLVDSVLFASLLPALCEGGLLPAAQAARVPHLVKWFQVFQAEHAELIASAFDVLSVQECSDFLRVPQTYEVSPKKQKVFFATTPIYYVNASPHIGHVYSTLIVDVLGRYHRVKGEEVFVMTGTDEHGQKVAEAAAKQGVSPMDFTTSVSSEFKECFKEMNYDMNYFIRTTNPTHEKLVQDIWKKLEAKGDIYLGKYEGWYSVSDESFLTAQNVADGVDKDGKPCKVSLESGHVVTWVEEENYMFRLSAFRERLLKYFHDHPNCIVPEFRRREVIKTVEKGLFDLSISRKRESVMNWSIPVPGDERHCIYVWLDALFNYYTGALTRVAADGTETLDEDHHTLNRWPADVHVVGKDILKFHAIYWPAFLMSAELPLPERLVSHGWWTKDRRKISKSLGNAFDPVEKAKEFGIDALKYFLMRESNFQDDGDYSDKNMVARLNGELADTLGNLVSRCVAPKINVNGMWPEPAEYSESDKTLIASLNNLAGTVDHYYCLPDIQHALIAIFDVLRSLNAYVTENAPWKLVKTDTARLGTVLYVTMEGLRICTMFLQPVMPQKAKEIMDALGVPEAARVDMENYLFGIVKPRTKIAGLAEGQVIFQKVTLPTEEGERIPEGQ

All values are in %. The controls that fix the scale are not given in the record; negative values are as filed. This is an unselected part of the compounds tested.

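Methionyl-tRNA synthetase (putative), Leishmania donovani (UniProt E9BF75). Primary screen of methionyl-tRNA synthetase; the read-out is not stated. The test concentration is not given. Values are per cent inhibition. About 68,000 compounds were tested under these conditions; 0.035% (about 24) showed 50% or more at least once.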

| # | compound | Inhibition |
|---|---|---|
| 1 | `O=C(NCC(O)CN1CCc2ccccc2C1)Nc1cccnc1` (stereo not drawn) | 11.11% |
| 2 | `CCN(CC)C(=O)c1nnn(Cc2ccccc2)c1OC` | 16.18% |
| 3 | `COc1cc(OC)c(CNC(=O)NCC(=O)N(C)C)c(OC)c1` | 6.443% |
| 4 | `COc1ncnc2c1CCN(C(=O)NCc1cccnc1)CC2` | 11.64% |
| 5 | `c1ncn(CC2CCCCN2Cc2noc(C3CC3)n2)n1` (stereo not drawn) | 9.184% |
| 6 | `Cc1ccc(CNc2n[nH]c(C)n2)cc1` | 17.12% |
| 7 | `CC(C)C(=O)N1CCN(S(=O)(=O)C2CC2)CC2(CC(=O)N(C)C2)C1` (stereo not drawn) | 7.299% |
| 8 | `CN(C)S(=O)(=O)N(C)C(c1cccc(F)c1)c1ccccn1` (stereo not drawn) | 14.2% |
| 9 | `CCc1nsc(NC2CCOC3(CCCC3)C2)n1` (stereo not drawn) | 12.63% |
| 10 | `CO[C@H]1CN(Cc2ccc(F)c(F)c2)C[C@@]12CCCO2` | 11.06% |
| 11 | `COc1cccc(-c2ccc3nc(C4CCN(C(C)=O)CC4)nn3c2)c1` | 9.89% |
| 12 | `CC(Nc1ncnc2c1CCNC2)c1ccc2c(c1)CCCC2` (stereo not drawn) | 22.87% |
| 13 | `Cc1cc2nc(O)c(O)nc2cc1S(=O)(=O)NC1CC1` | 11.9% |
| 14 | `Cc1cc(C)n(-c2cncc(NCCNS(C)(=O)=O)n2)n1` | 14.08% |
| 15 | `O=C(c1cocn1)N1C[C@@H]2COC[C@]2(COc2cccnc2)C1` | 10.34% |
| 16 | `Cn1cnnc1SCc1cc2c(cc1Br)OCO2` | 7.592% |
| 17 | `COC(=O)c1cc(OCC2CCC2)cc(C(=O)N[C@H]2CC[C@H](O)CC2)c1` | 4.433% |
| 18 | `CCC(=O)NCC(=O)NCC(C)(C)c1cccc(Br)c1` | 10.99% |
| 19 | `COc1cc(OC)cc(C2SCC(=O)Nc3ccsc32)c1` (stereo not drawn) | 4.935% |
| 20 | `Cc1ccc(CN(CCN(C)C)C(=O)Nc2cc(C(N)=O)ccc2C)s1` | 1.805% |
| 21 | `CNC(=O)[C@@H]1COC[C@H]2CN(C(=O)c3ccc(OC)cc3)C[C@H]21` | 3.806% |
| 22 | `COCCOCC(=O)Nc1ccccc1F` | 14.08% |
| 23 | `NC(=O)N1CCCC1COC(=O)c1cc(F)ccc1F` (stereo not drawn) | 20.39% |
| 24 | `Cc1nc(COCc2nc3c(o2)CN(C(=O)c2ccoc2)C3)cs1` | 14.49% |
| 25 | `c1cnc2c(-c3nccn3C[C@@H]3CCCN4CCCC[C@H]34)cccc2c1` | 10.13% |
| 26 | `Cc1noc(CCCC(=O)N2CCNC(=O)C2)n1` | 16.62% |
| 27 | `Cc1ccccc1C(=O)N1C[C@@H]2CCN(c3cccnc3)C[C@@H]2C1` | 10.48% |
| 28 | `c1cncc(-c2nnn3c2COCC(CNC2CCOCC2)C3)c1` (stereo not drawn) | 1.333% |
| 29 | `Cc1noc2nc(C3CCN(CC4CCCCC4)CC3)cc(C(F)F)c12` | 20.34% |
| 30 | `CC(C)(C)n1ncc2c1CCCC2NCc1ccc2ncccc2c1` (stereo not drawn) | -3.867% |
| 31 | `CS(=O)(=O)Nc1cnn(Cc2cccc(Cl)c2)c1` | 12.9% |
| 32 | `O=C(NCC1CC1)Nc1ccc(OCC(F)(F)F)nc1` | 18.7% |
| 33 | `CCCn1[nH]cc/c1=N\C(=O)CN1CCn2c(nnc2C2CC2)C1` | 8.163% |
| 34 | `COc1ccccc1OC1CCN(C(=O)c2cnc(C)cc2C)CC1` | 9.358% |
| 35 | `CCCN(CCC)C(=O)Cn1c(SC)nc2ccsc2c1=O` | 19.34% |
| 36 | `CCCc1nc(C(=O)N2C[C@H](CO)C[C@H](CN3CCOCC3)C2)cs1` | 11.18% |
| 37 | `Cc1cnc(C2(C)CCN(Cc3cscn3)CC2)s1` | 20.65% |
| 38 | `CC(=O)c1c(F)cccc1NC1CCN(C(=O)CC(C)C)CC1` | 6.265% |
| 39 | `Cc1nnc(NCc2cccnc2OCC(F)(F)F)c(C#N)c1C` | 17.46% |
| 40 | `NS(=O)(=O)CCNC(=O)c1nnn(-c2ccccc2)c1C1CC1` | 15.24% |
| 41 | `O=c1c2cnc(N3CCCC3)nc2ccn1-c1cccc(F)c1` | -4.935% |
| 42 | `O=S(=O)(CCCN1CCCC(Cn2cncn2)C1)c1ccccc1` (stereo not drawn) | 13.66% |
| 43 | `Cc1noc(C)c1CN1CCC2(CC1)NC(=O)CC2c1ccccc1` (stereo not drawn) | 18.6% |
| 44 | `CC(=O)N1N=C(c2ccccc2)OC1C(=O)NCCC1=CCCCC1` (stereo not drawn) | 5.944% |
| 45 | `CC(NC(=O)CSCC#N)c1cccc(Cl)c1` (stereo not drawn) | 16.57% |
| 46 | `Cc1cccc(N2CCC(N3CCC4(CN(C)C(=O)O4)C3)CC2)c1C` (stereo not drawn) | 12.78% |
| 47 | `Cc1ccc(NC(=O)CNc2ccn(CC(N)=O)n2)c(Cl)c1` | 19.27% |
| 48 | `Cc1nc(N(C)C)nc(C)c1NS(=O)(=O)c1ccc(F)cc1F` | -0.2398% |
| 49 | `O=C(Cc1cccnc1)NCCSc1ccccc1F` | 19.62% |
| 50 | `Cc1ocnc1C(=O)N1CCCC1c1ccc(C(=O)N2CCSCC2)s1` (stereo not drawn) | 8.873% |
| 51 | `Cc1cccc(CN2CCc3nnc(CN(C)C)n3CC2)n1` | 12.89% |
| 52 | `O=C(O)[C@]12CCCN(Cc3ccccc3)C[C@H]1CN(c1ncccn1)C2` | 14.64% |
| 53 | `Cc1cccc(CC(=O)N2CCOCC2c2c(C)n[nH]c2C)c1` (stereo not drawn) | 9.172% |
| 54 | `CCc1cccc(N2CCC(NC(=O)C3CCOCC3)CC2)c1` | 22.64% |
| 55 | `COc1ccccc1-n1cc(CN2CCN(C)[C@@H]3CS(=O)(=O)C[C@@H]32)cn1` | 11.45% |
| 56 | `CC(C)C(=O)N1CCC2(CC1)NC(=O)[C@H]1CN(Cc3cccnc3)C[C@H]12` | 7.222% |
| 57 | `COCCN(C)S(=O)(=O)c1cc(C)cc(F)c1` | 9.763% |
| 58 | `O=C(NC1CCCC1)N1CC[C@H]2[C@H]1CCN2c1nncs1` | 1.812% |
| 59 | `CCN1CC2(CCN(CCOCCO)CC2)CC(c2ccccc2)C1=O` (stereo not drawn) | 2.927% |
| 60 | `CCn1cnc(NC(=O)N2CCC(c3ccc(F)cc3)C2)n1` (stereo not drawn) | 8.078% |
| 61 | `CCOC1CCCN(C(=O)c2[nH]nc(C(C)C)c2Br)C1` (stereo not drawn) | 5.344% |
| 62 | `COc1ccccc1CNc1cnn(CC(F)F)c1` | 13.24% |
| 63 | `Fc1ccc(CN2CCC(c3nccnc3-n3ccnc3)CC2)cc1` | 17.47% |
| 64 | `O=S(=O)(c1ccc(Cl)cc1)N1CCOC[C@H](Oc2cnccn2)C1` | 8.271% |
| 65 | `O=S(=O)(Nc1cnn(C2CCOCC2)c1)c1c(F)cccc1F` | 18.63% |
| 66 | `CC(C)c1cc(N2CCC(N(C)C)C2)n2nccc2n1` (stereo not drawn) | 11.54% |
| 67 | `O=C(c1ccco1)N1CCC2(CCC(=O)N2Cc2ccccc2)CC1` | 14.01% |
| 68 | `CC(=O)N[C@@H]1CN(Cc2ccco2)C[C@H]1c1ccc(C)o1` | 12.64% |
| 69 | `O=C(C1CCCCO1)N1CCc2ncnc(NCc3ccon3)c2CC1` (stereo not drawn) | 26.39% |
| 70 | `CCc1ncc2c(n1)CN(CC(=O)Nc1ccc(Cl)cn1)CC2` | 16.78% |
| 71 | `Cc1nn(C)c(C)c1C1CCCN1Cc1nc(C)c2ccccc2n1` (stereo not drawn) | 27.78% |
| 72 | `Cc1cc(C)n(C2CN(c3ncnc4c3CCNCC4)C2)n1` | 10.72% |
| 73 | `Cc1nc(CN(Cc2ccncc2)C2CCN(C)CC2)cs1` | 8.393% |
| 74 | `COCCN1C[C@H]2CCN(C(=O)c3cc(C)on3)CC[C@H]2S1(=O)=O` | 8.403% |
| 75 | `CN(CC(=O)NCC1CCCCC1)S(=O)(=O)c1cccnc1` | 11.45% |
| 76 | `O=C(CCc1ccncc1)N1CCc2cc(Cl)cc(Cl)c2C1` | 5.722% |
| 77 | `CCn1cc(NC(=O)C2CCN(CC(=O)N3CCOCC3)CC2)cn1` | 14.96% |
| 78 | `Cc1nc(C(=O)NC2CCN(CCOc3ccc(Br)cc3)CC2)cs1` | 8.6% |
| 79 | `CC(C)n1nc(Cn2cccc2)c2c1CN(Cc1ccoc1)C2` | 17.39% |
| 80 | `COCC1CN(S(=O)(=O)Cc2ccccc2)Cc2c1cnn2C` (stereo not drawn) | 19.2% |
| 81 | `CCc1nnc2n1CCN(Cc1csc(-c3cnn(C)c3)n1)C2` | 7.08% |
| 82 | `COCC1CC2(CCN(c3cccc(C)n3)CC2)CN1c1ncccn1` (stereo not drawn) | 9.384% |
| 83 | `CC1=C[C@@H](CN2CCCC2)[C@H](C(C)C)C[C@H]1Cc1nnc(C)o1` | 6.015% |
| 84 | `Cc1cccc(CC(=O)NS(=O)(=O)c2ccc(F)c(F)c2)c1` | 20.38% |
| 85 | `Cc1noc(C)c1CN1CCN(Cc2nc(C3CC3)no2)CC1` | -1.863% |
| 86 | `N#Cc1cccnc1NCCc1cc(F)cc2c1OCOC2` | 7.003% |
| 87 | `Cc1nc(C)n(CC2CCCN2Cc2cc(-c3cccs3)on2)n1` (stereo not drawn) | 14.21% |
| 88 | `Cc1ccc2[nH]c(C3CCN(CC(N)=O)CC3)nc2c1` | 0.5319% |
| 89 | `COc1ccc(S(=O)(=O)N2C[C@@H]3CN(C)CCO[C@@H]3C2)cc1` | 13.74% |
| 90 | `CC(C)N1CC(C(=O)NC(C)(C)CNC(=O)OC(C)(C)C)CC1=O` (stereo not drawn) | 14.23% |
| 91 | `COc1ccc(NC(C)C(=O)N2CCN(Cc3ccccc3)CC2)cn1` (stereo not drawn) | 6.404% |

11 of the entries, repeated:

compound,Inhibition
COc1ccc(S(=O)(=O)N2C[C@@H]3CN(C)CCO[C@@H]3C2)cc1,13.74%
Cc1noc2nc(C3CCN(CC4CCCCC4)CC3)cc(C(F)F)c12,20.34%
Cc1nc(COCc2nc3c(o2)CN(C(=O)c2ccoc2)C3)cs1,14.49%
CCn1cnc(NC(=O)N2CCC(c3ccc(F)cc3)C2)n1 (stereo not drawn),8.078%
CC(C)C(=O)N1CCC2(CC1)NC(=O)[C@H]1CN(Cc3cccnc3)C[C@H]12,7.222%
COc1ncnc2c1CCN(C(=O)NCc1cccnc1)CC2,11.64%
O=c1c2cnc(N3CCCC3)nc2ccn1-c1cccc(F)c1,-4.935%
CC(C)n1nc(Cn2cccc2)c2c1CN(Cc1ccoc1)C2,17.39%
CC(NC(=O)CSCC#N)c1cccc(Cl)c1 (stereo not drawn),16.57%
O=S(=O)(Nc1cnn(C2CCOCC2)c1)c1c(F)cccc1F,18.63%
CCOC1CCCN(C(=O)c2[nH]nc(C(C)C)c2Br)C1 (stereo not drawn),5.344%